Assay results taken from paper PMC9587031, “Antibiotic polymyxin arranges lipopolysaccharide into crystalline structures to solidify the bacterial membrane” (Nature Communications, 2022).
Some entries repeat one wording, which the source may state once for all of them. Positions of bridges follow the written chain, without caps; N, C: chain ends. Non-standard residues stand in square brackets, D forms with d. Residues, ends and D or L forms follow the SMILES beside them. *: point of attachment. Aha = [N-]=[N+]=NCC[C@H](N)C(=O)O; Heptanoyl(6-Me) = CC(C)CCCCC(=O)*; X1 = CC[C@H](C)CCCCC(=O)*; Dab = NCC[C@H](N)C(=O)O

Legend:
[1] = system: OM patches from E. coli MG1655 WT strain; assay: AFM imaging of crystalline structure formation on OM patches; parameters: species or system Escherichia coli; conditions: for formation of crystalline structures: OM patches MG1655 WT incubated with 50 mg/l of the polymyxin variant (Fig. 3), repeated at least three times
Method: E. coli MG1655 strains were transformed with the pY200 plasmid that carries an mCherry gene preceded by the periplasmic export signal of the skp protein under control of the lux promoter. This construct enables over-expression of mCherry into the periplasmic space, which in turn increases the OMV production. Cultures were grown in LB medium (Difco) with 50 µg/ml spectinomycin (Fischer Scientific) at 37 °C. Expression of mCherry was induced at an OD600 ≈ 0.4 by N-(β ketocaproyl)-L-homoserine lactone (HSL, Cayman Chemical). After induction, the cultures were grown until they reached the early stationary phase, and bacteria were removed by centrifugation at 10,000 g for 10 min. The supernatant was filtered through a 0.45 µm filter unit (Merck Millipore) for the removal of residual bacteria. The OMVs were collected from the filtered supernatant by centrifugation at 38,400 g for 1.5 h. The pellet was resuspended in 12 ml Dulbecco’s phosphate-buffered saline buffer supplemented with magnesium and calcium (Sigma-Aldrich), and collected by two rounds of ultracentrifugation at 100,000 g for 1 h each. In the last step, the OMVs were resuspended in 1 ml DPBS buffer, aliquoted, and stored at –80 °C.
OMVs produced from different E. coli MG1655 strains were adsorbed onto freshly cleaved mica for 15 min in DPBS buffer at room temperature. After adsorption, the sample was gently washed with fresh DPBS buffer for five times to remove non-adsorbed OMVs. Then OMVs were imaged using force-distance curve-based AFM (FD-based AFM) performed with an AFM (Nanoscope Multimode 8, Bruker) operated in PeakForce Tapping mode in buffer solution (DPBS) at room temperature. The AFM was equipped with a 120 μm piezoelectric J scanner and fluid cell. The images were recorded using two different AFM cantilevers: PEAKFORCE‐HiRs‐F‐A (Bruker) with a nominal spring constant of 0.4 N/m, a resonance frequency of ≈ 165 kHz in liquid, and a sharpened silicon tip with a nominal radius of ≈ 1 nm or SCANASYST-FLUID + (Bruker) with a nominal spring constant of 0.7 N/m, a resonance frequency of ≈ 150 kHz in liquid, and a sharpened silicon tip with a nominal radius of ≈ 2 nm. Before imaging, cantilevers were calibrated by ramping on the mica surface and the thermal tuning method. Images were recorded at 2 kHz oscillation frequency, by applying an imaging force of 100–120 pN with a vertical amplitude of 30 nm. The AFM was placed inside a home‐built acoustic isolated and temperature‐controlled box. Raw AFM images were processed using the AFM analysis software Nanoscope v.1.8 for levelling and flattening.
AFM images were transformed with an automated image analysis script that identifies and characterizes local features by their Fourier transformation (FT)[60]. The analysis applies a moving local window (32×32 pixels, step size:16 pixels) on AFM images, and for each local window, a 2D power spectrum FT is computed, followed by machine learning processing. First, the number of components/fractions in the data is determined by computing the principal component analysis scree plot. Secondly, the data is blindly decomposed into different interpretable components by non-negative matrix factorization. The analysis script is publicly available as a Python analysis notebook and program for batch processing at (10.17632/25x46xjyr5.2).
Processed AFM images were analyzed using ilastik software (version 1.4.0b13) for automated (supervised) pixel classification with trained classifiers. Classifier files are available upon request. Through classification, the probability maps of AFM images were generated and exported as.tif files. The probability maps were opened in Fiji (ImageJ2 v.2.3.0) to perform particle analysis on threshold-selected features. The distance comparison histograms were generated from particle analysis data using Python’s data visualization library seaborn (v.0.11.2).

[2] = system: OM patches from E. coli MG1655 WT strain; assay: FD-based AFM elastic modulus and deformation of OM patches; parameters: species or system Escherichia coli; conditions: for Deformation mean / Elastic modulus mean: polymyxin E titration
[3] = system: E. coli K-12 MG1655 MCR-1 bacteria; assay: In-cell solid-state 31P-NMR T1ρ relaxation; assay type: cell-based, Escherichia coli; conditions: 31P ssNMR, intact cells, n = 1; untreated 3.6, 8.2, 8.9
[4] = OM patches MG1655, 1 mg/l polymyxin E

CC(C)C[C@@H]1NC(=O)[C@@H](Cc2ccccc2)NC(=O)[C@H](CCN)NC(=O)[C@@H](NC(=O)[C@H](CCN)NC(=O)[C@@H](N)[C@@H](C)O)CCNC(=O)[C@H]([C@@H](C)O)NC(=O)[C@H](CCN)NC(=O)[C@H](CCN)NC1=O [Polymyxin B nonapeptide] (H-T[Dab][Dab][Dab][dF]L[Dab][Dab]T; lactam 3-C (inferred); N-terminus assumed)
formation of crystalline structures [1]: Crystalline structures are formed
formation of crystalline structures ([1]; listed as PMBN): induced crystalline structures

CC[C@H](C)CCCCC(=O)N[C@@H](CCN)C(=O)N[C@H](C(=O)N[C@@H](CCN)C(=O)N[C@H]1CCNC(=O)[C@H]([C@@H](C)O)NC(=O)[C@H](CCN)NC(=O)[C@H](CCN)NC(=O)[C@H](CC(C)C)NC(=O)[C@@H](Cc2ccccc2)NC(=O)[C@H](CCN)NC1=O)[C@@H](C)O [Polymyxin B] (X1-[Dab]T[Dab][Dab][Dab][dF]L[Dab][Dab]T; lactam 4-C (inferred); N-terminus assumed)
formation of crystalline structures [1]: Crystalline structures are formed
formation of crystalline structures ([1]; listed as PMB): induced crystalline structures

CC(C)C[C@@H]1NC(=O)[C@@H](CC(C)C)NC(=O)[C@H](CCN)NC(=O)[C@@H](NC(=O)[C@H](CCN)NC(=O)[C@@H](NC(=O)[C@@H](N)CCN)[C@@H](C)O)CCNC(=O)[C@H]([C@@H](C)O)NC(=O)[C@H](CCN)NC(=O)[C@H](CCN)NC1=O [Polymyxin E intermediate-length] (H-[Dab]T[Dab][Dab][Dab][dL]L[Dab][Dab]T; lactam 4-C)
formation of crystalline structures [1]: Crystalline structures are formed

CC(C)C[C@@H]1NC(=O)[C@@H](CC(C)C)NC(=O)[C@H](CCN)NC(=O)[C@@H](NC(=O)[C@H](CCN)NC(=O)[C@@H](N)[C@@H](C)O)CCNC(=O)[C@H]([C@@H](C)O)NC(=O)[C@H](CCN)NC(=O)[C@H](CCN)NC1=O [Polymyxin E nonapeptide] (H-T[Dab][Dab][Dab][dL]L[Dab][Dab]T; lactam 3-C)
formation of crystalline structures [1]: Structures are not formed
formation of crystalline structures ([1]; listed as PMEN): did not

CC(C)CCCCC(=O)N[C@@H](CCN)C(=O)N[C@H](C(=O)N[C@@H](CCN)C(=O)N[C@H]1CCNC(=O)[C@H]([C@@H](C)O)NC(=O)[C@H](CCN=[N+]=[N-])NC(=O)[C@H](CCN)NC(=O)[C@H](CC(C)C)NC(=O)[C@@H](CC(C)C)NC(=O)[C@H](CCN)NC1=O)[C@@H](C)O [Polymyxin E with charge change] ({Heptanoyl(6-Me)}-[Dab]T[Dab][Dab][Dab][dL]L[Dab][Aha]T; lactam 4-C)
formation of crystalline structures [1]: Structures are not formed

CC(C)CCCCC(=O)N[C@@H](CCN)C(=O)N[C@H](C(=O)N[C@@H](CCN)C(=O)N[C@H]1CCNC(=O)[C@@H]([C@H](C)O)NC(=O)[C@H](CCN)NC(=O)[C@H](CCN)NC(=O)[C@H](CC(C)C)NC(=O)[C@@H](CC(C)C)NC(=O)[C@H](CCN)NC1=O)[C@@H](C)O [Polymyxin E with stereochemistry change] ({Heptanoyl(6-Me)}-[Dab]T[Dab][Dab][Dab][dL]L[Dab][Dab][dT]; lactam 4-C)
formation of crystalline structures ([1]; listed as enantiomer variant Thr10 (L- > D)): Crystalline structures are formed
formation of crystalline structures ([1]; listed as polymyxin E analogue with a D-Thr10 residue): induced the formation of crystalline structures

Polymyxin E
protrusion of crystalline structures from the membrane surface [1, 4]: 1–1.2 nm
unit cell length of crystalline structures [1, 4]: ≈ 10 nm
lattice constant aWT ([1]; OM patches MG1655 WT after polymyxin E, mean ± SD, n = 244 structures): 9.8 ± 3.9 nm
formation of crystalline structures [1]: Crystalline structures are formed
decrease of deformation of OM patches by the crystalline structures ([2]; increasing concentrations of polymyxin E): ≈ 20%
Deformation mean ([2]; 0.3 mg/l (0 mg/l: 2.125)): 1.631 nm
Elastic modulus mean ([2]; 0.3 mg/l (0 mg/l: 11.639)): 12.732 MPa
Deformation mean ([2]; 0.6 mg/l): 1.517 nm
Elastic modulus mean ([2]; 0.6 mg/l): 15.616 MPa
Deformation mean ([2]; 6 mg/l): 1.465 nm
Elastic modulus mean ([2]; 6 mg/l): 16.701 MPa
Deformation mean ([2]; 60 mg/l): 1.368 nm
Elastic modulus mean ([2]; 60 mg/l): 20.963 MPa
T1ρ, isotropic phosphates, MCR1 + colistin [3]: 8.7 ms
